Data taken from patent US20230039836A1, “AROMATIC SULPHONAMIDES DERIVATIVES THAT INHIBITS PDI A3, THEIR SYNTHESIS AND USE” (Uniwersytet Jagiellonski, priority 2020, published 2023).
At least one structure is not confirmed: it was looked up by name or label, or the drawing left a doubt.

Tested on: arterial thrombosis, right common carotid artery
Experiment: Rat model of arterial thrombosis
Type: in vivo
Settings: Wistar rats, electrically induced carotid thrombosis, FIG. 5
Method: To confirm antithrombotic activity of compounds of invention, inhibitors of PDIA1, pharmacological activity of selected compounds was tested in vivo in the rat model of arterial thrombosis . Wistar rats were anaesthetized with pentobarbital (40 mg/kg, i.p.) and placed in a supine position on a heated (37° C.) operating table. Arterial thrombosis was induced by electrical stimulation of the right common carotid artery, as previously described (Kramkowski et al., 2012). Briefly, the anode, a stainless steel L-shaped wire, was inserted under the artery and connected to a constant current generator. The cathode was attached subcutaneously to the hind limb. The artery was stimulated (1 mA) for 10 min. Fifty-five minutes after the beginning of stimulation, the segment of the common carotid artery containing the formed thrombus was dissected and opened lengthwise, and the thrombus was completely removed and air-dried at room temperature for 24 h. Thrombus was then weighed in a blinded manner.

Q: How did the “Effect on thrombus formation in vivo” value turn out when `C[C@@H]1O[C@@H](OC[C@H]2O[C@@H](Oc3c(-c4ccc(O)c(O)c4)oc4cc(O)cc(O)c4c3=O)[C@H](O)[C@@H](O)[C@@H]2O)[C@H](O)[C@H](O)[C@H]1O` [rutin] was run?
A: inhibited thrombus formation
